Results reported in PubChem BioAssay AID662 (National Center for Advancing Translational Sciences (NCATS), 2007).
Some of the results follow. The main result of the screen is listed elsewhere. These columns were measured beside it and carry no call. The list favours compounds with an active or inconclusive main result. Potencies come from curve fits of mixed quality, noted in brackets.

Test: Cell signaling CRE-BLA (Fsk stim)
Conditions: CHO CRE-bla reporter (cAMP response element driving beta-lactamase), forskolin EC10, beta-lactamase ratio; measured here: 460 nm blue channel
Outline: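 The 460nm/530nm emission ratio after CCF4 loading defined %Activity, from which AC50 values were obtained. CRE-bla CHO cells received compound dilution series together with an EC10 level of NKH 477 for 3 hours at 37 degrees Celsius.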

Structure (SMILES)	AC50
O=C(CNC(=O)c1ccccc1F)NC1CC1	0.00398 µM [falling, full curve]
O=C(O)C1C2CCC(C2)C1C(=O)NCc1ccco1 (stereo not given)	0.0794 µM [falling, full curve, poor fit]
CC(Sc1nc2ccccc2o1)C(=O)O (stereo not given)	0.1 µM [falling, full curve, poor fit]
Cc1nn(-c2ccccc2)c2sc(C(=O)N3CCc4ccccc4C3)cc12	3.98 µM [rising, full curve]
Cc1nc(NC2CCCCC2)c2nc(-c3ccccc3)n(CCN(C)C)c2n1	10 µM [rising, single point]
N#Cc1cc2c(=O)n3ccccc3nc2n(CCCN2CCOCC2)c1=O	10 µM [rising, partial curve]
CCOC(=O)Nc1cc(=O)c2ccccc2o1	0.631 µM [rising, full curve]
Cn1c(=O)c(CCc2ccccc2)nc2cnc(N3CCNCC3)nc21	12.6 µM [rising, single point]
COC(=O)c1ccc(C(=O)OC)c(NC(=O)c2oc(C)nc2C)c1	0.251 µM [falling, partial curve, poor fit]
CCC(=O)Nc1cc(-c2nnc(OC)c3ccccc23)ccc1N1CCOCC1	15.8 µM [rising, single point]
Cc1cccc2cc(C#N)c(NCCNC(=O)NC3CCCCC3)nc12	0.794 µM [falling, partial curve, poor fit]
O=C1CC(c2cccs2)CC(O)=C1C=NCCN1CCNCC1 (stereo not given)	0.398 µM [rising, partial curve]
Cc1ccc(OCc2nnc(SCc3cc(=O)[nH]c4ccccc34)o2)cc1	12.6 µM [rising, single point]
COC(=O)c1cc(OC)c(OC)cc1NC(=O)Cn1nnc(-c2ccccc2Cl)n1	2.51 µM [rising, full curve]
CCOc1ccc(NC(=O)CN(C)c2nnnn2-c2ccccc2)cc1OCC	5.01 µM [falling, single point]
CCc1c(C)sc(NC(=O)c2cc(-c3cc(OC)ccc3OC)on2)c1C#N	1 µM [rising, single point]
CN(C)c1ccc(-c2cncnc2NCc2ccccc2)cc1	5.01 µM [rising, single point]
Cc1cc(/C=N/n2cnnc2)c(C)n1-c1cccc(Cl)c1	12.6 µM [rising, partial curve]
CCCCn1c(NC(=O)c2ccccc2)c(C#N)c2nc3ccccc3nc21	12.6 µM [rising, partial curve]
O=C(N1CCCCCC1)N1CCN(S(=O)(=O)N2CCOCC2)CC1	0.00316 µM [falling, full curve, poor fit]
O=C(c1cc2ncc(Br)cn2n1)N1CCOCC1	0.398 µM [falling, full curve]
CCOCc1nnc(NC(=O)CSc2ccccc2)s1	3.98 µM [rising, single point]
CCOC(=O)c1c(-c2ccncc2)csc1N	15.8 µM [rising, partial curve]

Compounds shown so far with a Cl atom (2):
Structure (SMILES)	AC50
COC(=O)c1cc(OC)c(OC)cc1NC(=O)Cn1nnc(-c2ccccc2Cl)n1	2.51 µM [rising, full curve]
Cc1cc(/C=N/n2cnnc2)c(C)n1-c1cccc(Cl)c1	12.6 µM [rising, partial curve]

Remaining list, next part

Structure (SMILES)	AC50
CCc1cc(-c2[nH]ncc2-c2ccc3c(c2)OCO3)c(O)cc1O	2.51 µM [falling, full curve]
CN(Cc1ccco1)c1nc(-c2ccccc2Cl)nc2ccccc12	7.94 µM [rising, partial curve]
CCCCNC(=O)c1sc(=S)n2c1[nH]c(=O)c1ccccc12	0.01 µM [falling, full curve, poor fit]
CC1(C)C2CCC1(C)C(NC1=NCCC1)C2 (stereo not given)	3.16 µM [rising, single point]
Cc1ccccc1Cn1ccc(NC(=O)c2cnn3c(C(F)(F)F)cc(-c4ccco4)nc23)n1	7.94 µM [rising, partial curve, poor fit]
Cc1ccc(S(=O)(=O)Nc2cc(C(=O)O)ccc2N2CCCCC2)cc1	25.1 µM [rising, single point]
O=C(O)c1c2ccccc2cc2ccccc12	31.6 µM [falling, single point]
COc1ccc(OC)c(NC(=O)CN(c2ccc(OC)c(Cl)c2)S(C)(=O)=O)c1	2.51 µM [rising, full curve]
Cn1c(=O)c2c(SC3CCCC3)nc(C3CC3)nc2n(C)c1=O	2.51 µM [rising, partial curve]
CCOC(=O)c1ccc2c(c1)nc(SCC(=O)N1CCCCC1)n2CC	20 µM [rising, single point]
COc1ccccc1N1CCN(C(=O)c2ccc3nc(-c4ccco4)c(-c4ccco4)nc3c2)CC1	12.6 µM [rising, single point]
Cc1nc(C)c2c(=O)cc(-c3ccccc3)[nH]c2n1	10 µM [rising, partial curve]
N#Cc1ccccc1-c1ccc2ncnc(NCc3ccccc3)c2c1	2 µM [rising, full curve]
COc1cc(-c2nnc(SCC(=O)N(Cc3ccccc3)C(C)(C)C)o2)cc(OC)c1OC	2 µM [rising, full curve, poor fit]
C/C(Cl)=C\Cn1c(=O)c2c(nc3n2CCS3)n(C)c1=O	10 µM [rising, partial curve]
COc1cc2cc(C(c3nnnn3C(C)(C)C)N3CCc4ccccc4C3)c(=O)[nH]c2cc1OC (stereo not given)	12.6 µM [rising, partial curve]
O=C(CN1CCN(c2ccccn2)CC1)Nc1cc(C(F)(F)F)ccc1Cl	1 µM [falling, partial curve]
Cc1ccc(CNC(=O)CNS(=O)(=O)c2cccc3nsnc23)cc1	20 µM [rising, single point]
N#Cc1c(N)[nH]c(=S)c(C#N)c1-c1ccccc1	25.1 µM [falling, single point]
Cc1cc(C)c2c(=O)[nH]c(SCC(=O)Nc3ccccc3)nc2n1	5.01 µM [rising, partial curve]
O=C(NC1CC1)c1ccc(COc2ccc(F)cc2)o1	0.126 µM [falling, single point]
Cc1c(NC(=O)C(C)OC(=O)c2cc3c4ccccc4n(C)c3s2)c(=O)n(-c2ccccc2)n1C (stereo not given)	5.01 µM [falling, single point]
